PubChem BioAssay AID743454, Peter MacCallum Cancer Centre | 2014
Assay: 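Knock-downs lowering viability or raising caspase 3/7 activity in vorinostat-treated resistant cells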 (primary screen). Cells: human HCT116-VR colon cancer cells, selected for vorinostat resistance. Reagent: siRNA pool against human genes, 40 nM siRNA pool. Timing: vorinostat for 24 h, read-out about 72 h after transfection. Challenge: vorinostat at 2.5 µM final. Detection: 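Two measures, CellTiter-Fluor viability and luminescent caspase 3/7 activity, each as fold change against same-plate mock wells, mean of duplicates, then screen-wide robust z-score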. Direction: viability robust z-score: higher = more viable cells than screen typical; caspase robust z-score: higher = more caspase 3/7 activity than screen typical. Active means: 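a knock-down is a hit when classed RV1 or RV2 for lowered viability, or CA1 or CA2 for caspase activation; those lethal without drug were dropped; hits were retested singly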.
The whole screen tested about 18,000 reagents; this is a part drawn at random. Of all reagents, 450 (2.5%) are marked active. 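Single biological run; no consistent viability z cut-off exists, so the class columns, not z-scores, define the calls.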 No sequences are given here.

gene symbol | PubChem SID | viability hit class | caspase hit class | viability robust z-score | caspase robust z-score | Call
SUSD4 (sushi domain containing 4) | SID152152058 | no change | no change | -0.56 | -1.06 | inactive
MAP3K3 (mitogen-activated protein kinase kinase kinase 3) | SID56478641 | no change | no change | 0.74 | 0.47 | inactive
CYB5R2 (cytochrome b5 reductase 2) | SID152152419 | no change | no change | 1.65 | 0.56 | inactive
RAB8B (RAB8B, member RAS oncogene family) | SID152154028 | no change | no change | 0.12 | 0.85 | inactive
C11orf58 (chromosome 11 open reading frame 58) | SID152156212 | no change | no change | 0.07 | -0.54 | inactive
SERINC5 (serine incorporator 5) | SID152156279 | no change | no change | 1.52 | -0.42 | inactive
C9orf43 (chromosome 9 open reading frame 43) | SID134319607 | no change | no change | 0.3 | -0.39 | inactive
SLC25A43 | SID152154422 | no change | no change | 0.68 | -0.25 | inactive
CELF2 (CUGBP Elav-like family member 2) | SID135622385 | no change | no change | -0.08 | 0.2 | inactive
STARD3 (StAR related lipid transfer domain containing 3) | SID134321584 | no change | no change | 0.05 | 1.34 | inactive
GADD45GIP1 (GADD45G interacting protein 1) | SID152156621 | no change | no change | -0.52 | 0.83 | inactive
ASZ1 | SID134319340 | no change | no change | 0.64 | 0.1 | inactive
BTRC | SID152154547 | no change | no change | 0.67 | -0.59 | inactive
PPP6R2 (protein phosphatase 6 regulatory subunit 2) | SID135624175 | no change | no change | -0.91 | -0.73 | inactive
TREML4 (triggering receptor expressed on myeloid cells like 4) | SID134325075 | no change | no change | 0.19 | -0.68 | inactive
BCL9L (BCL9 like) | SID152154297 | no change | no change | 1.15 | -0.46 | inactive
AIRE (autoimmune regulator) | SID152148887 | no change | no change | -0.44 | -1.02 | inactive
ZNF425 (zinc finger protein 425) | SID134326334 | no change | no change | -0.16 | 1.22 | inactive
HERC4 (HECT and RLD domain containing E3 ubiquitin protein ligase 4) | SID152147236 | no change | no change | -0.48 | 1.88 | inactive
CFAP100 (cilia and flagella associated protein 100) | SID134322516 | no change | no change | -0.26 | 2.77 | inactive
PDE8B (phosphodiesterase 8B) | SID152147610 | no change | no change | -1.43 | 2.62 | inactive
ZBTB35 (zinc finger and BTB domain containing 35) | SID152156317 | no change | no change | 0.45 | 0.58 | inactive
PLA1A (phospholipase A1 member A) | SID134313284 | no change | no change | -0.58 | 3.79 | inactive
STYXL1 (serine/threonine/tyrosine interacting like 1) | SID134312963 | no change | no change | -0.48 | -0.24 | inactive
TRMT9B (tRNA methyltransferase 9B (putative)) | SID152151036 | no change | no change | 1.15 | 0.3 | inactive
OFD1 (OFD1 centriole and centriolar satellite protein) | SID152151531 | no change | no change | 1.2 | -0.65 | inactive
UNC93B1 (unc-93B1 regulator of TLR signaling) | SID135622534 | no change | no change | -2.04 | 0.66 | inactive

Next part; the last 3 above are carried over.
gene symbol | PubChem SID | viability hit class | caspase hit class | viability robust z-score | caspase robust z-score | Call
TRMT9B (tRNA methyltransferase 9B (putative)) | SID152151036 | no change | no change | 1.15 | 0.3 | inactive
OFD1 (OFD1 centriole and centriolar satellite protein) | SID152151531 | no change | no change | 1.2 | -0.65 | inactive
UNC93B1 (unc-93B1 regulator of TLR signaling) | SID135622534 | no change | no change | -2.04 | 0.66 | inactive
HYCC2 (hyccin PI4KA lipid kinase complex subunit 2) | SID152151423 | no change | no change | -1.16 | -0.17 | inactive
SMCO4 (single-pass membrane protein with coiled-coil domains 4) | SID134324120 | no change | no change | -0.13 | 2.59 | inactive
NCOA5 (nuclear receptor coactivator 5) | SID152149057 | no change | no change | 1.85 | -0.06 | inactive
OR2M3 (olfactory receptor family 2 subfamily M member 3) | SID152149326 | no change | no change | 0.08 | 2.75 | inactive
CKM (creatine kinase, M-type) | SID56479085 | no change | no change | -2.04 | 1.48 | inactive
KCNT2 (potassium sodium-activated channel subfamily T member 2) | SID134326894 | no change | no change | 0.4 | -0.98 | inactive
RCN1 (reticulocalbin 1) | SID134315722 | no change | no change | -0.14 | -0.22 | inactive
ARPP19 (cAMP regulated phosphoprotein 19) | SID152153198 | no change | no change | -0.1 | -0.84 | inactive
ADH6 (alcohol dehydrogenase 6 (class V)) | SID152147487 | no change | no change | -0.08 | -0.02 | inactive
FKBP7 (FKBP prolyl isomerase 7) | SID152154597 | no change | no change | -0.06 | 1.71 | inactive
UBE2I (ubiquitin conjugating enzyme E2 I) | SID134310672 | no change | no change | -0.46 | 1.02 | inactive
KRT6A (keratin 6A) | SID152154812 | no change | no change | -0.35 | -0.04 | inactive
HTR1D (5-hydroxytryptamine receptor 1D) | SID134311074 | no change | no change | 0.32 | -1.08 | inactive
IGFN1 | SID152152793 | no change | no change | -0.66 | 1.79 | inactive
TMCO6 (transmembrane and coiled-coil domains 6) | SID135622983 | no change | no change | -0.5 | 0.46 | inactive
PPAT (phosphoribosyl pyrophosphate amidotransferase) | SID134311426 | no change | no change | 0.7 | -0.74 | inactive
GULP1 (GULP PTB domain containing engulfment adaptor 1) | SID135621565 | no change | no change | 0.12 | -1.05 | inactive
PABPC4 (poly(A) binding protein cytoplasmic 4) | SID152151321 | no change | no change | -0.47 | -0.44 | inactive
GPR65 (G protein-coupled receptor 65) | SID134311029 | no change | no change | 0.26 | -1.12 | inactive
SMIM21 (small integral membrane protein 21) | SID152151704 | no change | no change | -0.38 | -0.97 | inactive
ZW10 (zw10 kinetochore protein) | SID134310184 | no change | no change | -0.66 | -1.15 | inactive
LGR6 (leucine rich repeat containing G protein-coupled receptor 6) | SID135621041 | no change | no change | 0.4 | -0.78 | inactive
UNG (uracil DNA glycosylase) | SID134316113 | no change | no change | 0.8 | 0.44 | inactive
GSTZ1 (glutathione S-transferase zeta 1) | SID134315639 | no change | no change | 0.16 | -0.49 | inactive
ADAMTSL4 (ADAMTS like 4) | SID135624955 | no change | no change | 0.93 | -0.24 | inactive
IQUB (IQ motif and ubiquitin domain containing) | SID134322696 | no change | no change | 0.18 | 1.5 | inactive
PGK2 (phosphoglycerate kinase 2) | SID135621248 | no change | no change | 1.21 | -0.29 | inactive
PDIA3 (protein disulfide isomerase family A member 3) | SID152150706 | no change | no change | -2.23 | 0.32 | inactive
OR1M1 (olfactory receptor family 1 subfamily M member 1) | SID152149678 | no change | no change | 0.35 | 0.5 | inactive
NNT (nicotinamide nucleotide transhydrogenase) | SID152150133 | no change | no change | -2.06 | 2.23 | inactive
H4C8 (H4 clustered histone 8) | SID135622129 | no change | no change | 1.15 | 1.77 | inactive
TPST2 (tyrosylprotein sulfotransferase 2) | SID135621939 | no change | no change | 0.16 | -0.44 | inactive
USP32 (ubiquitin specific peptidase 32) | SID135621139 | no change | no change | -0.24 | -1.02 | inactive
VWCE (von Willebrand factor C and EGF domains) | SID152151104 | no change | no change | 0.11 | 2.63 | inactive
NINJ2 (ninjurin 2) | SID152152033 | no change | no change | -0.18 | -0.76 | inactive
AGR3 | SID134315182 | no change | no change | 0.59 | -0.2 | inactive
IL34 (interleukin 34) | SID134320754 | no change | no change | 0.82 | -1.06 | inactive
RSPH10B (radial spoke head 10 homolog B) | SID135623523 | no change | no change | 0.64 | -0.14 | inactive
CPS1 (carbamoyl-phosphate synthase 1) | SID134314039 | no change | no change | 1.21 | 0.71 | inactive
GPHN (gephyrin) | SID135623024 | no change | no change | 0.93 | -0.1 | inactive
ADAM15 (ADAM metallopeptidase domain 15) | SID135620836 | no change | no change | -0.43 | 1.25 | inactive
DDX28 (DEAD-box helicase 28) | SID134321152 | no change | no change | 1.19 | -0.18 | inactive
COX20 (cytochrome c oxidase assembly factor COX20) | SID152152994 | no change | no change | 0.12 | 1.6 | inactive
XPA (XPA, DNA damage recognition and repair factor) | SID152153264 | no change | no change | 0.8 | -0.72 | inactive
NDUFS6 (NADH:ubiquinone oxidoreductase subunit S6) | SID152153660 | no change | no change | 0.2 | -0.42 | inactive
NDUFA11 (NADH:ubiquinone oxidoreductase subunit A11) | SID134322360 | no change | no change | 0.32 | 1.19 | inactive
